These are yes or no findings as the source states them, for the method shown. Binding calls can cover weak binding; strength is not graded here. Tags and fused reporters may be left off the sequences shown.
Target: phyB PASII domain fused to DBD (yeast two-hybrid) (Arabidopsis thaliana)
Test: two-hybrid

binding: binds
B1: PCH1 fused to AD (yeast two-hybrid) (protein, UniProt Q84V03 1-778)
chain: MSEHVMVLGKGNKGISKNSSVNPYESAWLGRWTQSGSEVKFHDGETNCSKQLIRPEDENHGVEVLPFPMFKVSQKRETTTTTTTKPSFHEDVGSSSRAMVNRMPWMYPQGENFSSSNRLDFPIQEKTTQNLLELIRPVRIYATVDSVNLPKEDSHQLLKGSTVSMKLKGKIFGGYLDLFPNQDHSHNRGGVRLQSLESSKDTQEDGPRKNESSAETNTLEMDRLQTIHLSGSISSSSTKGKGIKGYSAIPRTEIPDMNEEPPLVPDRENSVDGHQGETSNSATQSMNVEHFLSRDCKRVRLEPEVEASSRWVKRLKTSPSDSSETKSMMKMKEASLGEKENNNLFLEILKSGINNLQPRNQEPVVSQSNDLRQGGDDITLLHPWIQRWCKKKTTSTDQPTGQEASFEPESHKEFEKKQYPSIAAMALMGKALSGLNPYGLRKTNSLMVWNARDLSFTYRSLRWNLTMADWPLLPNDLLELIMGHLETSFEIFLFRSVCSSWRSVVPPLDHSRCLGIKTHDISFNVGFSFNGRPTNEYCTLKKIPIYLVKFWTPFGDDYLLAEMRERNDGEPKLLLSPLSSNGIKYGMGINKVLFNSLTSPIIPFGQYYEITYIEKRPSEYRFGFPYKLEWVEITERVEFLKLDSEDSRDFAVLFAGRMCNLVMYRSRNMSWTQVVEHPEKYAYQDLVAFKGKFYAVDSSGRGRVFVVELSFEVTEIPSVGGSQQSSKESLVQSGEELLLVQRFTPVGRRYDEYIYIHGSECLDLMKKEERESGFKLMT

Source: publication doi:10.1101/566687
